Experimental data from patent publication US7781187B2, “Fluorescent dyes” (Corning Incorporated, priority 2005, dated 2010).

Assay: Coefficient of Variance of background signal, buffer plus dye only, microplate reader
Conditions: optimal excitation/emission wavelengths

Structure (SMILES)	Coefficient of Variance 100 μL/well	Coefficient of Variance 200 μL/well
C[n+]1c(/C=C/c2ccc(N(CCO)CCO)cc2)sc2ccccc21 [Dye 95]	12%	13%
C[n+]1c(/C=C/c2ccc(OCCOCCOCCOc3ccc(/C=C/c4sc5ccccc5[n+]4C)cc3)cc2)sc2ccccc21 [HE-HE]	24%	13%
CN1/C(=C/C=C/c2cc[n+](CCC[N+](C)(C)C)c3ccccc23)Sc2ccccc21.[I-].[I-] [TO-PRO-3 ™, reference compound]	115%	19%
CN1/C(=C/c2cc[n+](CCC[N+](C)(C)CCC[N+](C)(C)CCC[n+]3ccc(/C=C4\Sc5ccccc5N4C)c4ccccc43)c3ccccc23)Sc2ccccc21.[I-].[I-].[I-].[I-] [TOTO-1™, reference compound]	84%	12%
